Values quoted from earlier work as cited in US20070122470A1, “New Combination Dosage Form” (priority 2005, published 2007).
At least one structure is not confirmed: it was looked up by name or label, or the drawing left a doubt.

Conditions: cited from earlier work

Compound | effect on gastroduodenal lesions evoked by ASA (concomitant administration for patients treated with ASA (Simon et al 1995)) | effect on damages on the mucosa caused by ASA (concomitant administration for patients treated with ASA (Müller et al 1997))
COc1ccc2[nH]c([S+]([O-])Cc3ncc(C)c(OC)c3C)nc2c1 (centres unmarked) [omeprazole] | reduce gastroduodenal lesions evoked by ASA | –
CNC(=C[N+](=O)[O-])NCCSCc1ccc(CN(C)C)o1 [ranitidine] | – | reduce damages on the mucosa caused by ASA
